Laboratory results as given in PubChem BioAssay AID1671190 (National Center for Advancing Translational Sciences (NCATS), 2021).
In all, about 580,000 compounds went through this assay and about 6,100 (1.1%) were called active. Inconclusive results, whose numbers are uncertain, are shown with a selection of clear calls. Calls follow the shape of the dose curve; as a rule, active = well fitted inhibition curve with a large enough effect; inconclusive = small, poorly fitted or top-dose-only effect, or another doubt; inactive = no such curve, though single readings can be large or run the other way. Where the call is inconclusive, the potency comes from a doubtful curve fit.

Chains of the proteins cited; added tags and fusions are not shown. Lines headed by an entry give the natural chain unless they say otherwise; changes in a name come on top.
UniProt P18054: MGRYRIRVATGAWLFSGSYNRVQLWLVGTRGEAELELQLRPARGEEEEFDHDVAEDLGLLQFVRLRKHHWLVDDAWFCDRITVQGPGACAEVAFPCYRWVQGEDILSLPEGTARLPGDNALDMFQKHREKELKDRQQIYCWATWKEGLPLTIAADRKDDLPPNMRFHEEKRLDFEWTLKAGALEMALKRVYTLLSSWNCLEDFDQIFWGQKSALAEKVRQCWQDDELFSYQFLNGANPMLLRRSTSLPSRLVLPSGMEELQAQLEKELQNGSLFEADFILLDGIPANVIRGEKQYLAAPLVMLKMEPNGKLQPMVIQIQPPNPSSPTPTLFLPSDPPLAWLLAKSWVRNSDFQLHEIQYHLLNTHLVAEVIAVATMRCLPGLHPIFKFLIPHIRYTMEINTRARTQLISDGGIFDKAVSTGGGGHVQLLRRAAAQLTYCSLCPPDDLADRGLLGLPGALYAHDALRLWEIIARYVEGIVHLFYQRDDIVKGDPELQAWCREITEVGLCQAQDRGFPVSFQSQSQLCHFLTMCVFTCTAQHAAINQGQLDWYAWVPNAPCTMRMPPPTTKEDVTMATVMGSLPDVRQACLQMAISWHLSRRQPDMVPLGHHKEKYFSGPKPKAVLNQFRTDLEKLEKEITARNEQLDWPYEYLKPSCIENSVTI

The compounds below were run against Polyunsaturated fatty acid lipoxygenase ALOX12 (Homo sapiens) (UniProt P18054) (assay: Primary qHTS assay for inhibitors of human arachidonate 12S-lipoxygenase (ALOX12): Round 2). Conditions: purified 12hLO, xylenol orange hydroperoxide absorbance; activity change, negative = inhibition: at 108 µM (top of the series) unless noted.
Outline: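 Hydroperoxide product was detected by ferrous iron/xylenol orange as the 573 to 405 nm absorbance ratio. Arachidonic acid at 40 uM (final) was turned over for 30 min at room temperature by 150 nM human 12hLO, pH 7.0 Hepes buffer, after 15 min compound preincubation.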
% is scaled to controls: 0 for no effect and ±100 for the full control effect; potency is read from the fitted curve at half-maximal effect.

Row | SMILES | Potency | activity change, negative = inhibition
1 | Cn1c2ccc(F)cc2c2ncn(Cc3ccccn3)c(=O)c21 | inconclusive: 126 µM [inhibitor, single point] | –
2 | CCc1nc2ccc(C(=O)N3CCN(C(=O)c4ccco4)CC3)cn2c1N(CC)CCOC | inconclusive: 112 µM [inhibitor, partial curve, poor fit] | –
3 | Cn1cccc1C(=O)N1CCCN(C(=O)C2CC2)C(c2ccccc2)CC(=O)NCC1 (centres undefined) | – | inactive: 14%
4 | COc1ccc(-c2cc(C(=O)NCCC(C)C)c3ccccc3n2)cc1 | inconclusive: 89.1 µM [inhibitor, partial curve, poor fit] | –
5 | COc1ccc(C(=O)NCCn2ccn3nc(-c4ccc(C)c(C)c4)cc3c2=O)cc1 | – | inactive: 0.69%
6 | COc1ccc([C@H]2N[C@]3(CCCN(Cc4ccco4)C3=O)[C@H]3C(=O)N(C)C(=O)[C@@H]23)cc1 | inconclusive: 39.8 µM [inhibitor, partial curve, poor fit] | –
7 | Brc1ccc2[nH]cc(/C=N/n3cnnc3)c2c1 | inconclusive: 0.501 µM [inhibitor, full curve, poor fit] | –
8 | CCn1cc(/C=C2/SC(=S)NC2=O)c(C)n1 | inconclusive: 70.8 µM [inhibitor, partial curve, poor fit] | –
9 | C[C@@H]1CN([C@H](C)CO)C(=O)c2cc(NC(=O)Nc3ccc4c(c3)OCO4)ccc2O[C@H]1CN(C)Cc1ccncc1 | inconclusive: 50.1 µM [inhibitor, partial curve, poor fit] | –
10 | O=[N+]([O-])c1ccc(Cl)c(CN2CCN(c3ncccn3)CC2)c1 | inconclusive: 31.6 µM [inhibitor, partial curve, poor fit] | –
11 | Cc1nnc(SCC(=O)Nc2cccnc2Cl)s1 | – | inactive: 8.84%
12 | Cc1ccc(-c2nc(C(=O)N3CCN(C(C#N)c4ccc(F)cc4)CC3)cs2)cc1 (centres undefined) | inconclusive: 20 µM [inhibitor, full curve] | –
13 | C/C(=N\Nc1cccc([N+](=O)[O-])c1)c1cc(F)ccc1O | inconclusive: 22.4 µM [inhibitor, full curve, poor fit] | –
14 | CCc1ccc(C(=O)NCc2ccco2)o1 | inconclusive: 89.1 µM [inhibitor, single point] | –
15 | CCc1cc(=O)oc2c3c(cc(OCC(=O)Nc4cccnc4)c12)OC(C)(C)CC3 | – | inactive: 5.92%
16 | O=C(c1cnccn1)N1CCC2(CCCN(C(c3ccccc3)c3ccccc3)C2)CC1 | – | inactive: -25.5% [at 57.4 µM]
17 | O=S(=O)(c1ccc2nc(Nc3cccc(F)c3)ccc2c1)N1CCCC1 | inconclusive: 50.1 µM [inhibitor, partial curve, poor fit] | –
18 | COc1cc(C(=O)O)c([N+](=O)[O-])c(OC)c1OC | inconclusive: 35.5 µM [inhibitor, partial curve, poor fit] | –
19 | Cc1nc(SCc2ccc(O)c([N+](=O)[O-])c2)c([N+](=O)[O-])[nH]1 | inconclusive: 31.6 µM [inhibitor, partial curve, poor fit] | –
20 | COCCN1CCC(N2CCN(S(=O)(=O)c3ccc(F)cc3F)CC2)C1=O (centres undefined) | – | inactive: 69.6%

A different layout for part of the listing above:

| Row | SMILES | Potency | activity change, negative = inhibition |
| --- | --- | --- | --- |
| 14 | CCc1ccc(C(=O)NCc2ccco2)o1 | inconclusive: 89.1 µM [inhibitor, single point] | – |
| 15 | CCc1cc(=O)oc2c3c(cc(OCC(=O)Nc4cccnc4)c12)OC(C)(C)CC3 | – | inactive: 5.92% |
| 16 | O=C(c1cnccn1)N1CCC2(CCCN(C(c3ccccc3)c3ccccc3)C2)CC1 | – | inactive: -25.5% [at 57.4 µM] |
| 17 | O=S(=O)(c1ccc2nc(Nc3cccc(F)c3)ccc2c1)N1CCCC1 | inconclusive: 50.1 µM [inhibitor, partial curve, poor fit] | – |
| 18 | COc1cc(C(=O)O)c([N+](=O)[O-])c(OC)c1OC | inconclusive: 35.5 µM [inhibitor, partial curve, poor fit] | – |
| 19 | Cc1nc(SCc2ccc(O)c([N+](=O)[O-])c2)c([N+](=O)[O-])[nH]1 | inconclusive: 31.6 µM [inhibitor, partial curve, poor fit] | – |
| 20 | COCCN1CCC(N2CCN(S(=O)(=O)c3ccc(F)cc3F)CC2)C1=O (centres undefined) | – | inactive: 69.6% |

Remaining list, next part.

Row | SMILES | Potency | activity change, negative = inhibition
21 | COc1ccc(CN2C(=O)CN(S(C)(=O)=O)CC2(C)C(=O)Nc2c(C)cccc2C)cc1 (centres undefined) | – | inconclusive: -32.3% [inhibitor]
22 | N=c1c(C(=O)NC2CCCC2)cc2c(=O)n3ccccc3nc2n1C1CCCCC1 | inconclusive: 112 µM [inhibitor, single point] | –
23 | O=C(Nc1cc(-c2ccccc2)nn1-c1ccccc1F)c1ccc([N+](=O)[O-])cc1 | inconclusive: 35.5 µM [inhibitor, partial curve] | –
24 | O=C(c1ccco1)c1n[nH]nc1-c1ccccc1 | inconclusive: 22.4 µM [inhibitor, partial curve] | –
25 | Cc1ccc(C(=O)N(Cc2ccco2)C2CC2)s1 | inconclusive: 39.8 µM [inhibitor, partial curve] | –
26 | CC(C)CC1CCCCC1OC(=O)C[N+]1(C)CCCCC1 (centres undefined) | inconclusive: 100 µM [inhibitor, partial curve, poor fit] | –
27 | COc1cc(C2C(C#N)=C(N)Oc3cc(C)oc(=O)c32)cc2c1OCO2 (centres undefined) | inconclusive: 1.58 µM [inhibitor, full curve] | –
28 | CCOc1ccc(/C=N/Nc2cc(=O)n(C)c(=O)n2C)cc1 | inconclusive: 79.4 µM [inhibitor, single point] | –
29 | CN1CCN(c2ncc3nc(CCc4ccccc4)c(=O)n(CCC#N)c3n2)CC1 | inconclusive: 100 µM [inhibitor, single point] | –
30 | C=CCC[C@H](Cc1ccc(F)cc1)C(=O)OC[C@@H](Cc1c[nH]c2ccccc12)NC(=O)[C@H](CC=C)CC(=O)N(CCO)Cc1ccccc1 | inconclusive: 79.4 µM [inhibitor, partial curve, poor fit] | –
31 | Cc1ccc(S(=O)(=O)NCC(Nc2cccc(Cl)c2)c2ccccc2)cc1 (centres undefined) | inconclusive: 44.7 µM [inhibitor, partial curve, poor fit] | –
32 | COc1cc(OC)c([N+](=O)[O-])cc1/C=N/NC(=O)c1ccncc1 | – | inactive: -2.8%
33 | Cc1ccccc1Cn1c2ccccc2c2cnn(CC(=O)N3CCC(C)CC3)c(=O)c21 | inconclusive: 126 µM [inhibitor, partial curve, poor fit] | –
34 | O=C(C=Cc1ccccc1)N1CCCCC1 | inconclusive: 126 µM [inhibitor, single point] | –
35 | Cc1cccc(NC(=S)NC(=O)c2ccc(-c3ccccc3)cc2)n1 | active: 35.5 µM | –
36 | O=C(Nc1cccc(C(F)(F)F)c1)c1noc2c1CCCC2 | inconclusive: 79.4 µM [inhibitor, single point] | –
37 | NS(=O)(=O)c1ccc(NCc2ccccc2OCc2ccccc2F)cc1 | inconclusive: 1.58 µM [inhibitor, full curve, poor fit] | –
38 | CC(C)=CCC/C(C)=C/CNC(=O)C[C@H]1C[C@H](C(=O)N2CCOCC2)[C@@]2(CCC3CCCC3)c3[nH]c4cc(CCC(=O)N(C)C)ccc4c3CCN2C1=O | inconclusive: 39.8 µM [inhibitor, single point] | –
39 | CC1CCCC/C1=N\NC(=S)Nc1ccccc1 (centres undefined) | inconclusive: 25.1 µM [inhibitor, partial curve] | –
